The list shows a part of the results.
Compound: CC1Cc2ccccc2N1C(=O)C1CCCN(C1)C(=O)CCl (mixture of isomers) [TRIM25 ligand 11 (diastereomer mixture)]
Assay: probe-labelled cysteine peptide fold change vs DMSO (competition) (log2 fold change); higher = less target engagement (more negative = stronger competition)
Details: THP-1, incubation time: 4 h
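Further: competitive chemoproteomic profiling in live THP-1 cells with an iodoacetamide desthiobiotin (IA-DTB) probe, comparing probe-labelled peptide intensities in compound-treated cells against DMSO-treated controls.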

Protein sequences, listed by entry. Tags and fused reporters are not part of them. Lines headed by an entry give the natural chain unless they say otherwise; changes in a name come on top.
UniProt Q01432: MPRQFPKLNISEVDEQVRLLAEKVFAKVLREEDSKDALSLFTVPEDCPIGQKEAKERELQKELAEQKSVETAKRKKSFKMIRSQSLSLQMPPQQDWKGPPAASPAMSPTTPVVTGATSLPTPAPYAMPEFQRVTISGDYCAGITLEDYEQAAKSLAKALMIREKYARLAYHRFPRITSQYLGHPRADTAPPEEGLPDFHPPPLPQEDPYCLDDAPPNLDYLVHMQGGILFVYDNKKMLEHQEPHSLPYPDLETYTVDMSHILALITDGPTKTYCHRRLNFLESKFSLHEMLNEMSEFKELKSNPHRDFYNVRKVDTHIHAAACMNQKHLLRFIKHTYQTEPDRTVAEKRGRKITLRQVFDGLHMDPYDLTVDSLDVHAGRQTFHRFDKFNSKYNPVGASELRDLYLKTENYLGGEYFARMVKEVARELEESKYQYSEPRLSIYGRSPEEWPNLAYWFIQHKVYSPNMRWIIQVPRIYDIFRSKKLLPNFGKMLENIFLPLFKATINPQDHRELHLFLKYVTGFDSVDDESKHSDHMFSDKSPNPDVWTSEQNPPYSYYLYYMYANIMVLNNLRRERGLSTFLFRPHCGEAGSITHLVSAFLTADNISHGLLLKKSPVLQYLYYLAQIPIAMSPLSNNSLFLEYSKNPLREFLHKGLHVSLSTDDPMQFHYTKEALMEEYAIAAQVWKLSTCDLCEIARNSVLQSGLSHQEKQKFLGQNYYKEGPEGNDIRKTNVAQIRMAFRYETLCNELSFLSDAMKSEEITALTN
UniProt O43865, whole entry, looked up: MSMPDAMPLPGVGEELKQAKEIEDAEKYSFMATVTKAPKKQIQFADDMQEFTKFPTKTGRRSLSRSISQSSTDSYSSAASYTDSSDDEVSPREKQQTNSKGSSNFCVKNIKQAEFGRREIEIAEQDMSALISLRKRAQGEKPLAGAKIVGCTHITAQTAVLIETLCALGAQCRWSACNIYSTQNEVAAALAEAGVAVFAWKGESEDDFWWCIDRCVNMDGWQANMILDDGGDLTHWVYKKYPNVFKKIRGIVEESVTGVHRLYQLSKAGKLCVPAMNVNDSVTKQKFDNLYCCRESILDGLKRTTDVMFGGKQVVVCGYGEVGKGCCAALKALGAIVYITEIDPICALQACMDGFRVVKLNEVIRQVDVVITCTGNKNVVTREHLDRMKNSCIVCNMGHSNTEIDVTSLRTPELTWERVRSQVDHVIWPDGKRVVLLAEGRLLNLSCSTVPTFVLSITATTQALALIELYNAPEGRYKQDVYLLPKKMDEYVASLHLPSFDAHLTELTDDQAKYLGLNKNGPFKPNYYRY
UniProt Q9H553: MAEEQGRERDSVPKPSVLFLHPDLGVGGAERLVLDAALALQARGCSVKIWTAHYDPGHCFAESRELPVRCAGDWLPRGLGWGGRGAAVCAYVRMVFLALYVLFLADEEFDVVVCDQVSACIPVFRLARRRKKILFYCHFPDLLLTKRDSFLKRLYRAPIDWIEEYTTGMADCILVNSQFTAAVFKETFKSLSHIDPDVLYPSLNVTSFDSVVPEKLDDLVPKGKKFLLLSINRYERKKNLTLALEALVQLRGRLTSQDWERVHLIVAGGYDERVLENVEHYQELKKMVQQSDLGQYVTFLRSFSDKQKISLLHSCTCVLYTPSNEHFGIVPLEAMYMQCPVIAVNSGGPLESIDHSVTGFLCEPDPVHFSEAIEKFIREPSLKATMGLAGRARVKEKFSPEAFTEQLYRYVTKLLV
UniProt Q99996, whole entry, looked up: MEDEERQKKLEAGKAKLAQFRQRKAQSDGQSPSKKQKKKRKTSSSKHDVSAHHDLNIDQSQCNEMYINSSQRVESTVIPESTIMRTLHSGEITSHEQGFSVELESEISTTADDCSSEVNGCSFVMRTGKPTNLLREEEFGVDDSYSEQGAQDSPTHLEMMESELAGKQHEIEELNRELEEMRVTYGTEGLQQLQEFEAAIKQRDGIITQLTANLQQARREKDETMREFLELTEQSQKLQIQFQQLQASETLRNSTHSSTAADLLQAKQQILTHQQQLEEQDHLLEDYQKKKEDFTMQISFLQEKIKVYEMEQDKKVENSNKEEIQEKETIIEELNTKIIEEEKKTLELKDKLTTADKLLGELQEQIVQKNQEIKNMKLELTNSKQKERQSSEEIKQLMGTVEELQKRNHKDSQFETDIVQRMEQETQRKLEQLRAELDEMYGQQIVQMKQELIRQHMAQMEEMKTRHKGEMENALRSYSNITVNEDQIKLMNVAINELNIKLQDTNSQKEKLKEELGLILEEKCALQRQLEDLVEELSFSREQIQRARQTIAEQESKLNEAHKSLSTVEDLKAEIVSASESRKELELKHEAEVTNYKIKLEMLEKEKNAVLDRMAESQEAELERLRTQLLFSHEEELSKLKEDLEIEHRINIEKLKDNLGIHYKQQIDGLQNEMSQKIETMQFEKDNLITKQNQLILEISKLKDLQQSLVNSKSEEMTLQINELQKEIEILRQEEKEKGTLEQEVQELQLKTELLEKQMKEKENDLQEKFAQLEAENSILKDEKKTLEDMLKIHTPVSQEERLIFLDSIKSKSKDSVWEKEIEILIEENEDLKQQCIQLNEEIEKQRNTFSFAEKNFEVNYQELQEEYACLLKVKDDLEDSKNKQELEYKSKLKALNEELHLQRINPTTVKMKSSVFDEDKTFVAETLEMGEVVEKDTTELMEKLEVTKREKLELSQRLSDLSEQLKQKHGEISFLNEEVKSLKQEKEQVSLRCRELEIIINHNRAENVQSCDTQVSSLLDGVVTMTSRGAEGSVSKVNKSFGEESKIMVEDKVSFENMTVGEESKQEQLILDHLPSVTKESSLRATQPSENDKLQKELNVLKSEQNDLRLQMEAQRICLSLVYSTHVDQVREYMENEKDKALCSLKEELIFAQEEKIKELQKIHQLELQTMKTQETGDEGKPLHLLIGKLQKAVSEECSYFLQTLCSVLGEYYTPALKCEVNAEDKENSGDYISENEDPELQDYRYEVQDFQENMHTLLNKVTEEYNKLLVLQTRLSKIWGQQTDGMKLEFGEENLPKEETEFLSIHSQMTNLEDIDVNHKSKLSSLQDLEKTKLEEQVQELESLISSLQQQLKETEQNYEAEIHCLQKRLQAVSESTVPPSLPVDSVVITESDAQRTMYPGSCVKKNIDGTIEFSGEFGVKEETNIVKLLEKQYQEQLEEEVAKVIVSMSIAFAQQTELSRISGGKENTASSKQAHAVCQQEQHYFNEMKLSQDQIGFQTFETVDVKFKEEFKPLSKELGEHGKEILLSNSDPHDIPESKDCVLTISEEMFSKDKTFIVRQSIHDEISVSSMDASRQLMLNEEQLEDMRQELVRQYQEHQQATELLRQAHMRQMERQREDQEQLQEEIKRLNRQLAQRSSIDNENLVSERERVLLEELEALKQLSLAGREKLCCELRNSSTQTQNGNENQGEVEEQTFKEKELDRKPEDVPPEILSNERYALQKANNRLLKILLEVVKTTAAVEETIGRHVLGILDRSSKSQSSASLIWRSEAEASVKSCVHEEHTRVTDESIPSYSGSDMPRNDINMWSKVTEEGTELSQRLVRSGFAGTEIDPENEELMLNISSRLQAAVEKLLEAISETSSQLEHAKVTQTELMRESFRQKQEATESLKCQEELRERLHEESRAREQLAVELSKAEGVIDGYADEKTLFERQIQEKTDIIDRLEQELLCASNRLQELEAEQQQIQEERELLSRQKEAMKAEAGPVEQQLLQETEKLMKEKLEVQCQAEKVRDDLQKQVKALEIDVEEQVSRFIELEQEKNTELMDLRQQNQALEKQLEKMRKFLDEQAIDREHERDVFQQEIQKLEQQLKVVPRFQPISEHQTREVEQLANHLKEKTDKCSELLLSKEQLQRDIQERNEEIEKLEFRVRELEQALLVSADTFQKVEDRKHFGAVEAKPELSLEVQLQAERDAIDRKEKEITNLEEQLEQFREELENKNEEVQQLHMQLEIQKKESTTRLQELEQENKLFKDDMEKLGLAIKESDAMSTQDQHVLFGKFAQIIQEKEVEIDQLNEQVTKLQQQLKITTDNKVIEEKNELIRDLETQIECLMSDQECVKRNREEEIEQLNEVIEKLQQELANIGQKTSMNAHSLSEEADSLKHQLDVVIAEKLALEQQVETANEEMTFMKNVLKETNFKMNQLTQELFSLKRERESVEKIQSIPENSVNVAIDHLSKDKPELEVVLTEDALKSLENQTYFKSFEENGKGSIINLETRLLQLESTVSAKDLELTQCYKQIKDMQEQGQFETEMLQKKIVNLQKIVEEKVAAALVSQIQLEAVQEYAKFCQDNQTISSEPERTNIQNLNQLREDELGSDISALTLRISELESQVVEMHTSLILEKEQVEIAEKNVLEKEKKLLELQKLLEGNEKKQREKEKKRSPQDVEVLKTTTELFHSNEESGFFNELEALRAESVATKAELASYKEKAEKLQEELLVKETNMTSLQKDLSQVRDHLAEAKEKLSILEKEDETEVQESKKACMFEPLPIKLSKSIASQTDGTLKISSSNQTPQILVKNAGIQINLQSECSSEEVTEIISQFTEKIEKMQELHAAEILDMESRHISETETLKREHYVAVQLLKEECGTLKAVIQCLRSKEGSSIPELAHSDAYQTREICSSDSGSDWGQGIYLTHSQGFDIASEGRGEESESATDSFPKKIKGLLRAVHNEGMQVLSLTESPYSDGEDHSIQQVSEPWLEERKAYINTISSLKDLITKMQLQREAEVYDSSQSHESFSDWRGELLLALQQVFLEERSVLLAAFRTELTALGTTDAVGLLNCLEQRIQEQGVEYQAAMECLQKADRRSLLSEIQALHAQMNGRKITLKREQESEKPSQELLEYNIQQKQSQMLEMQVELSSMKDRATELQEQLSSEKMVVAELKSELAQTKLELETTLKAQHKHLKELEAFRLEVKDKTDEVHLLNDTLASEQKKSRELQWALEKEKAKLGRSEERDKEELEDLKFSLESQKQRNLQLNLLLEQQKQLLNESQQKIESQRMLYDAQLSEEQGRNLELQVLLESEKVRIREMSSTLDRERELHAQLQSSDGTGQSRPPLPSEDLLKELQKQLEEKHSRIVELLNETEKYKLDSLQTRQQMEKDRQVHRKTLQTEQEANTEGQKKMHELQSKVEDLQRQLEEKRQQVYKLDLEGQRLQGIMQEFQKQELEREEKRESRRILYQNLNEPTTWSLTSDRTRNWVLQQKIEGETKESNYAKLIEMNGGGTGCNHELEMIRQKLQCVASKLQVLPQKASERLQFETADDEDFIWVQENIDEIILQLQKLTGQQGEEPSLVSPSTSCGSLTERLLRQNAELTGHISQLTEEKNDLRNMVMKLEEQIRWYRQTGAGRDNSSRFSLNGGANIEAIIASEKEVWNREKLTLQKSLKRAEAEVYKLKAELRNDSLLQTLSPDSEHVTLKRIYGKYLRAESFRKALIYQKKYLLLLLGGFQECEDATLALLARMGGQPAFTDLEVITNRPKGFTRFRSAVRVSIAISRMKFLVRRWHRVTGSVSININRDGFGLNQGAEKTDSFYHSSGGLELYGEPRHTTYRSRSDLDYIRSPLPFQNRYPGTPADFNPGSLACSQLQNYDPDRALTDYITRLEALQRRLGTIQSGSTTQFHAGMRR
UniProt P23526: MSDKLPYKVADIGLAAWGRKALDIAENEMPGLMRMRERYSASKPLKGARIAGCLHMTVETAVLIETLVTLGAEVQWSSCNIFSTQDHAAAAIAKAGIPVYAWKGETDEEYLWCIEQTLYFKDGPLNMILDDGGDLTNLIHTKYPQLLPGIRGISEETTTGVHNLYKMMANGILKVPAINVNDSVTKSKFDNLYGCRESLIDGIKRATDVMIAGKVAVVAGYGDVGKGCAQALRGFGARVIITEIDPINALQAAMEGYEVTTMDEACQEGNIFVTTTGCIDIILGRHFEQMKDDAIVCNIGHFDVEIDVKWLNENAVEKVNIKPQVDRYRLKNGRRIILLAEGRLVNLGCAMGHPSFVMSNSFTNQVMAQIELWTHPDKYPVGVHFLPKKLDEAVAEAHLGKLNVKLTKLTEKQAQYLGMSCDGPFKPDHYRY
UniProt P49189: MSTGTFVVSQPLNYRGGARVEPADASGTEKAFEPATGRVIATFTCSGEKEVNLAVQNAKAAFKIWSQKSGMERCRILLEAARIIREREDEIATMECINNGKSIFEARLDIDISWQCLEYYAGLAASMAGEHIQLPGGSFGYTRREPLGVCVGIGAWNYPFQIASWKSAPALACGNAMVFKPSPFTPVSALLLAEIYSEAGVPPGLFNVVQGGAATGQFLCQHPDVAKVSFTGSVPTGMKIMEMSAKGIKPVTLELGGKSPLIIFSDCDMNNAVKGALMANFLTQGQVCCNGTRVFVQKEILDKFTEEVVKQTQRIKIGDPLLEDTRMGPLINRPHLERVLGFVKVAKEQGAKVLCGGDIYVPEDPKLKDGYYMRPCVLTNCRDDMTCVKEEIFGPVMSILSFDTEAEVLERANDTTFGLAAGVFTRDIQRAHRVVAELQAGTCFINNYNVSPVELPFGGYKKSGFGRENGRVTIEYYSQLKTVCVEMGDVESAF

Target	probe-labelled cysteine peptide fold change (10 µM)	probe-labelled cysteine peptide fold change (50 µM)
ALDH7A1_P49419_522_STCTINYSK (UniProt P49419)	0.173	0.148
AKAP1_Q92667_102_LPAEPPALLQTHPPCR (UniProt Q92667)	-0.0712	-0.0529
AMPD3_Q01432_691_LSTCDLCEIAR (UniProt Q01432)	0.0566	0.0054
AGMAT_Q9BSE5_250_VVLAEDCWMK (UniProt Q9BSE5)	-0.138	0.215
AGL_P35573_486_ELICWGDSVK (UniProt P35573)	0.0108	0.0934
AHCYL1_O43865_172_IVGCTHITAQTAVLIETLCALGAQCR (UniProt O43865)	-0.215	-0.0246
ALG2_Q9H553_137_ILFYCHFPDLLLTK (UniProt Q9H553)	0.0813	0.301
ANAPC7_Q9UJX3_329_EGRLEDVENLGCR (UniProt Q9UJX3)	-0.15	-0.00267
ALDOA_P04075_339_RALANSLACQGK (UniProt P04075)	-0.0559	-0.0356
ANAPC1_Q9H1A4_1074_LLQLCQR (UniProt Q9H1A4)	-0.106	-0.00236
AHCYL1_O43865_317_QVVVCGYGEVGK (UniProt O43865)	0.0174	0.104
ALCAM_Q13740_435_TIICHVEGFPK (UniProt Q13740)	0.0685	0.223
AGL_P35573_957_NDLGHPFCNNLR (UniProt P35573)	0.00062	-0.0293
AKAP9_Q99996_2333+2340_DLETQIECLMSDQECVK (UniProt Q99996)	0.226	-0.234
ALAD_P13716_132_TFPNLLVACDVCLCPYTSHGHCGLLSENGAFR (UniProt P13716)	0.0316	0.149
AMPD2_Q01433_310_TYEQGPDTPVSADAPVHPPALEQHPYEHCEPSTMPGDLGLGLR (UniProt Q01433)	0.124	-0.261
ANAPC1_Q9H1A4_575_LHDSLYNEDCTFQQLGTYIHSIRDPVHNR (UniProt Q9H1A4)	0.233	-0.00527
ALDOB_P05062_240_ALNDHHVYLEGTLLKPNMVTAGHACTK (UniProt P05062)	0.409	0.274
AHCY_P23526_421_QAQYLGMSCDGPFKPDHYRY (UniProt P23526)	-0.136	-0.197
ALDH1L2_Q3SY69_683_SCAVSNLK (UniProt Q3SY69)	0.0456	-0.0481
AHCTF1_Q8WYP5_354_LLGCQSIEK (UniProt Q8WYP5)	-0.0355	-0.209

Target	probe-labelled cysteine peptide fold change (10 µM)	probe-labelled cysteine peptide fold change (50 µM)
AKR1A1_P14550_187+200_QIDDILSVASVRPAVLQVECHPYLAQNELIAHCQAR (UniProt P14550)	-0.0471	-0.0131
ALDH9A1_P49189_289_GALMANFLTQGQVCCNGTR (UniProt P49189)	-0.0386	-0.039
AHCY_P23526_297_DDAIVCNIGHFDVEIDVK (UniProt P23526)	0.234	0.44
AMPD3_Q01432_47_DALSLFTVPEDCPIGQK (UniProt Q01432)	0.0286	-0.277
ALG2_Q9H553_59_IWTAHYDPGHCFAESR (UniProt Q9H553)	0.0186	-0.018
AIFM1_O95831_256_CLIATGGTPR (UniProt O95831)	0.0434	0.0627
ANAPC2_Q9UJX6_394_LLHPGVNTCDIITLYISAIK (UniProt Q9UJX6)	0.172	-0.0274
AKAP1_Q92667_655_IYISTLPYTQSVQICHIEGSQHHVDK (UniProt Q92667)	0.11	0.538
AHCYL2_Q96HN2_454_QVDIVITCTGNK (UniProt Q96HN2)	0.145	0.133
AIMP2_Q13155_23_PYHGGGAPLRVELPTCMYR (UniProt Q13155)	-0.0734	-0.143
AGO1_Q9UL18_304_RPASHQTFPLQLESGQTVECTVAQYFK (UniProt Q9UL18)	0.0201	0.0277
ALDH6A1_Q02252_149_GLQVVEHACSVTSLMMGETMPSITK (UniProt Q02252)	-0.116	-0.034
ALDH9A1_P49189_45_VIATFTCSGEK (UniProt P49189)	-0.0203	0.015
ALDH9A1_P49189_96_EREDEIATMECINNGK (UniProt P49189)	-0.125	-0.144
ALDH16A1_Q8IZ83_350_GAAACDLVQR (UniProt Q8IZ83)	-0.0523	0.0166
ALDOC_P09972_240_ALSDHHVYLEGTLLKPNMVTPGHACPIK (UniProt P09972)	-0.105	-0.326
AKAP9_Q99996_3063_TELTALGTTDAVGLLNCLEQR (UniProt Q99996)	-0.00678	-0.0745
ALAS1_P13196_263_VCGAVMDTLK (UniProt P13196)	-0.0227	0.246
AKR1B1_P15121_299+304_VCALLSCTSHK (UniProt P15121)	-0.068	-0.257
AIP_O00170_78_LPVWETIVCTMR (UniProt O00170)	-0.126	1.17
